Assay results: the supplement of paper PMC10849652
The list shows a part of the results.

Amino acid sequences for entries named in this document (tags omitted). A change or cut given only in a name is not applied to a line headed by its entry.
UniProt Q9NWH9: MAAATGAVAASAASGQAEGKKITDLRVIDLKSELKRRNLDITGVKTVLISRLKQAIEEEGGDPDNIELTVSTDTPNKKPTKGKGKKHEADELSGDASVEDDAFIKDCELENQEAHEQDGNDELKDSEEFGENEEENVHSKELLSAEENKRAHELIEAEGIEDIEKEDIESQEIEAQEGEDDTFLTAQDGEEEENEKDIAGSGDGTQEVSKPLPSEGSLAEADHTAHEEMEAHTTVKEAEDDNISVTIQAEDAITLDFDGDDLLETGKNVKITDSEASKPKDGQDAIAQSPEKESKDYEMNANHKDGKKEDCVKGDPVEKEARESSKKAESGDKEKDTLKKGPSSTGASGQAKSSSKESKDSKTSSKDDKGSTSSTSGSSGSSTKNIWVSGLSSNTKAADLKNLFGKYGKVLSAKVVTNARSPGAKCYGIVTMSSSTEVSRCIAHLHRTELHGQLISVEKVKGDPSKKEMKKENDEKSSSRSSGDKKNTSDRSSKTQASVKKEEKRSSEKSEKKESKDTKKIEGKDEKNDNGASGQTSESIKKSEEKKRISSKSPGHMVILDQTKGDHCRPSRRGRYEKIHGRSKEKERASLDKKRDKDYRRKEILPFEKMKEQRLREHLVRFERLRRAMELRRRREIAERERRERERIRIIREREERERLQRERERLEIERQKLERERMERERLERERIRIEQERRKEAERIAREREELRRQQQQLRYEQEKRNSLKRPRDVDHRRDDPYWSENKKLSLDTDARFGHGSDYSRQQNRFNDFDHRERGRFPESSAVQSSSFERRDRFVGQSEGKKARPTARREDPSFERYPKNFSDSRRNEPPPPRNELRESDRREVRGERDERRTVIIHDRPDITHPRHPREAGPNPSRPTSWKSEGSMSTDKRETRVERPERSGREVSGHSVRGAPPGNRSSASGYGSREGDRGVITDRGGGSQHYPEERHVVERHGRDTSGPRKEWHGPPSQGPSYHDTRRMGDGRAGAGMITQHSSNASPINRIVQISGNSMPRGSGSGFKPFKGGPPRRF

Key:
Assay in all cases: log2 fold change, soluble protein after heating vs DMSO (PISA); higher = thermal stabilisation; K562 cells, 10 uM, 30 min; active = over 0.2 and 3.5 SD of the protein, either way, in both replicates (recomputed)
defactinib = compound: CNC(=O)c1ccc(Nc2ncc(C(F)(F)F)c(NCc3nccnc3N(C)S(C)(=O)=O)n2)cc1 [defactinib]
Procedure, shortened: (§1)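 K562 cells at 2×10^6 cells/mL were treated with 10 μM compound for 30 min. Aliquots were heated for 3 min across 48°C-58°C, pooled, and extracted in PBS with 0.5% NP-40 at 4°C; soluble protein was the supernatant after 21,000xg for 90 min. Soluble protein was quantified by TMTpro 16plex LC-MS/MS with channel sums equalised, and reported as log2 fold change in thermal stability against DMSO controls, with values from duplicates.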

rucaparib = compound: CNCc1ccc(-c2[nH]c3cc(F)cc4c3c2CCNC4=O)cc1 [rucaparib]
Procedure, shortened: as §1

[1] = compound: CNc1nc(-c2ccc3c(N)n[nH]c3c2)cc(N2C[C@@H](C(=O)NC3CCCCC3)CC[C@H]2C)n1
Procedure, shortened: as §1

encorafenib = compound: COC(=O)N[C@@H](C)CNc1nccc(-c2cn(C(C)C)nc2-c2cc(Cl)cc(NS(C)(=O)=O)c2F)n1 [encorafenib]
Procedure, shortened: as §1

[2] = compound: COC(=O)[C@H](CCSC)NC(=O)C1=C(C=C(C=C1)NC[C@H](CS)N)C2=CC=CC=C2
Procedure, shortened: as §1

[3] = compound: COC1=CC=C(C=C1)CN2C=CC3=C2C=C(C=C3)C(=O)NO
Procedure, shortened: as §1

filanesib = compound: CON(C)C(=O)N1N=C(c2cc(F)ccc2F)S[C@@]1(CCCN)c1ccccc1 [filanesib]
Procedure, shortened: as §1

zotarolimus = compound: CO[C@H]1C[C@@H]2CC[C@@H](C)[C@@](O)(O2)C(=O)C(=O)N2CCCC[C@H]2C(=O)O[C@H]([C@H](C)C[C@@H]2CC[C@H](n3cnnn3)[C@H](OC)C2)CC(=O)[C@H](C)/C=C(\C)[C@@H](O)[C@@H](OC)C(=O)[C@H](C)C[C@H](C)/C=C/C=C/C=C/1C [zotarolimus]
Procedure, shortened: as §1

idasanutlin = compound: COc1cc(C(=O)O)ccc1NC(=O)[C@@H]1N[C@@H](CC(C)(C)C)[C@](C#N)(c2ccc(Cl)cc2F)[C@H]1c1cccc(Cl)c1F [idasanutlin]
Procedure, shortened: as §1

alisertib = compound: COc1cc(Nc2ncc3c(n2)-c2ccc(Cl)cc2C(c2c(F)cccc2OC)=NC3)ccc1C(=O)O [alisertib]
Procedure, shortened: as §1

[4] = compound: COc1cc2nc(-c3cc(F)ccc3O)nc(N[C@@H]3CNC[C@H]3C(C)(C)O)c2cc1OC
Procedure, shortened: as §1

gefitinib = compound: COc1cc2ncnc(Nc3ccc(F)c(Cl)c3)c2cc1OCCCN1CCOCC1 [gefitinib]
Procedure, shortened: as §1

[5] = compound: COc1cccc2cc(-c3nc([C@H]4CC[C@H](C(=O)O)CC4)n4ncnc(N)c34)[nH]c12
Procedure, shortened: as §1

lapatinib = compound: CS(=O)(=O)CCNCc1ccc(-c2ccc3ncnc(Nc4ccc(OCc5cccc(F)c5)c(Cl)c4)c3c2)o1 [lapatinib]
Procedure, shortened: as §1

pictilisib = compound: CS(=O)(=O)N1CCN(Cc2cc3nc(-c4cccc5[nH]ncc45)nc(N4CCOCC4)c3s2)CC1 [pictilisib]
Procedure, shortened: as §1

[6] = compound: CS(=O)(=O)c1ccc(-c2cnc(N)c(C(=O)Nc3ccccc3)n2)cc1
Procedure, shortened: as §1

crizotinib = compound: C[C@@H](Oc1cc(-c2cnn(C3CCNCC3)c2)cnc1N)c1c(Cl)ccc(F)c1Cl [crizotinib]
Procedure, shortened: as §1

[7] = compound: C[C@@H]1COCCN1C2=NC(=NC(=C2)C3(CC3)S(=O)(=O)C)C4=C5C=CNC5=CC=C4
Procedure, shortened: as §1

[8] = compound: C[C@H](C1=CC=C(C=C1)C(=O)NC2=C3C=CNC3=NC=C2)N
Procedure, shortened: as §1

duvelisib = compound: C[C@H](Nc1ncnc2nc[nH]c12)c1cc2cccc(Cl)c2c(=O)n1-c1ccccc1 [duvelisib]
Procedure, shortened: as §1

gandotinib = compound: Cc1cc(Nc2cc(CN3CCOCC3)c3nc(C)c(Cc4ccc(Cl)cc4F)n3n2)n[nH]1 [gandotinib]
Procedure, shortened: as §1

tozasertib = compound: Cc1cc(Nc2cc(N3CCN(C)CC3)nc(Sc3ccc(NC(=O)C4CC4)cc3)n2)n[nH]1 [tozasertib]
Procedure, shortened: as §1

[9] = compound: Cc1cc(SCc2sc(-c3ccc(C(F)(F)F)cc3)nc2C)ccc1OCC(=O)O
Procedure, shortened: as §1

doramapimod = compound: Cc1ccc(-n2nc(C(C)(C)C)cc2NC(=O)Nc2ccc(OCCN3CCOCC3)c3ccccc23)cc1 [doramapimod]
Procedure, shortened: as §1

ispinesib = compound: Cc1ccc(C(=O)N(CCCN)[C@@H](c2nc3cc(Cl)ccc3c(=O)n2Cc2ccccc2)C(C)C)cc1 [ispinesib]
Procedure, shortened: as §1

bafetinib = compound: Cc1ccc(NC(=O)c2ccc(CN3CC[C@H](N(C)C)C3)c(C(F)(F)F)c2)cc1Nc1nccc(-c2cncnc2)n1 [bafetinib]
Procedure, shortened: as §1

[10] = compound: Cc1cccc(CC(=O)N2CCc3c2ccc(-c2cn(C)c4ncnc(N)c24)c3F)n1
Procedure, shortened: as §1

nilotinib = compound: Cc1cn(-c2cc(NC(=O)c3ccc(C)c(Nc4nccc(-c5cccnc5)n4)c3)cc(C(F)(F)F)c2)cn1 [nilotinib]
Procedure, shortened: as §1

[11] = compound: Cc1nc(Nc2n[nH]c3c2CN(C(=O)N[C@H](CN(C)C)c2ccccc2)C3(C)C)c2sccc2n1
Procedure, shortened: as §1

dasatinib = compound: Cc1nc(Nc2ncc(C(=O)Nc3c(C)cccc3Cl)s2)cc(N2CCN(CCO)CC2)n1 [dasatinib]
Procedure, shortened: as §1

[12] = compound: Cc1ncc(-c2ccnc(Nc3ccc(S(C)(=O)=O)cc3)n2)n1C(C)C
Procedure, shortened: as §1

[13] = compound: Cc1sc2c(c1C)C(c1ccc(Cl)cc1)=N[C@@H](CC(=O)OC(C)(C)C)c1nnc(C)n1-2
Procedure, shortened: as §1

[14] = compound: Cn1cc(-c2ccc3c(c2)CCN3C(=O)Cc2cccc(C(F)(F)F)c2)c2c(N)ncnc21
Procedure, shortened: as §1

[15] = compound: Cn1cc(-c2ccc3nnc(C(F)(F)c4ccc5ncccc5c4)n3n2)cn1
Procedure, shortened: as §1

tipifarnib = compound: Cn1cncc1[C@@](N)(c1ccc(Cl)cc1)c1ccc2c(c1)c(-c1cccc(Cl)c1)cc(=O)n2C [tipifarnib]
Procedure, shortened: as §1

mubritinib = compound: FC(F)(F)c1ccc(/C=C/c2nc(COc3ccc(CCCCn4ccnn4)cc3)co2)cc1 [mubritinib]
Procedure, shortened: as §1

[16] = compound: NC(=O)Nc1cc(-c2cccc(F)c2)sc1C(=O)N[C@H]1CCCNC1
Procedure, shortened: as §1

[17] = compound: NC(=O)c1cnc(N[C@@H]2CCCC[C@@H]2N)nc1Nc1cccc(-n2nccn2)c1
Procedure, shortened: as §1

[18] = compound: NC1(c2ccc(-c3nc4ccn5c(=O)[nH]nc5c4cc3-c3ccccc3)cc2)CCC1
Procedure, shortened: as §1

[19] = compound: NCC(=O)Nc1ccc(-n2nc(C(F)(F)F)cc2-c2ccc3c(ccc4ccccc43)c2)cc1
Procedure, shortened: as §1

entinostat = compound: Nc1ccccc1NC(=O)c1ccc(CNC(=O)OCc2cccnc2)cc1 [entinostat]
Procedure, shortened: as §1

vorinostat = compound: O=C(CCCCCCC(=O)Nc1ccccc1)NO [vorinostat]
Procedure, shortened: as §1

citarinostat = compound: O=C(CCCCCCNC(=O)c1cnc(N(c2ccccc2)c2ccccc2Cl)nc1)NO [citarinostat]
Procedure, shortened: as §1

silmitasertib = compound: O=C(O)c1ccc2c(c1)nc(Nc1cccc(Cl)c1)c1ccncc12 [silmitasertib]
Procedure, shortened: as §1

[20] = compound: O=C1NC(=O)C(c2cnc3ccccn23)=C1c1cn2c3c(cc(F)cc13)CN(C(=O)N1CCCCC1)CC2
Procedure, shortened: as §1

[21] = compound: c1cc(OCCN2CCCCC2)cc(-c2n[nH]c3ccc(-c4nnc[nH]4)cc23)c1
Procedure, shortened: as §1

[22] = compound: c1ccc([C@@H]2C[C@H]2NC2CCNCC2)cc1
Procedure, shortened: as §1

entospletinib = compound: c1cn2cc(-c3ccc4cn[nH]c4c3)nc(Nc3ccc(N4CCOCC4)cc3)c2n1 [entospletinib]
Procedure, shortened: as §1

Measured: log2 fold change

SLTM (UniProt Q9NWH9)
inactive: defactinib 0.076 | rucaparib 0.177 | [1] -0.014 | encorafenib 0.027 | [2] 0.083 | [3] -0.054 | filanesib 0.475 | zotarolimus 0.042 | idasanutlin 0.338 | alisertib -0.085 | [4] -0.022 | gefitinib -0.029 | [5] 0.013 | lapatinib -0.05 | pictilisib -0.069 | [6] -0.047 | crizotinib 0.05 | [7] -0.528 | [8] 0.326 | duvelisib -0.165 | gandotinib 0.162 | tozasertib 0.136 | [9] -0.105 | doramapimod 0.158 | ispinesib 0.28 | bafetinib 0.049 | [10] -0.051 | nilotinib 0.07 | [11] 0.23 | dasatinib 0.193 | [12] -0.065 | [13] 0.043 | [14] -0.248 | [15] -0.143 | tipifarnib 0.101 | mubritinib 0.024 | [16] 0.072 | [17] 0.084 | [18] 0.014 | [19] 0.052 | entinostat -0.123 | vorinostat -0.073 | citarinostat -0.082 | silmitasertib 0.134 | [20] 0.131 | [21] -0.082 | [22] 0.033 | entospletinib 0.083
